From the supplement of paper PMC4807443
Where a name gives a salt, the structure may show the parent alone. This is one part of the list. The numbers are fractions of the control, whatever unit the source prints. Most values lie at the level of the controls, where differences are scatter.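 A lentiviral reporter stably expressed in MIN6 mouse insulinoma beta cells uses Pdx1 and Ins1 promoters to drive separate nucleus-targeted fluorescent proteins; automated imaging with Hoechst nuclear stain counted cells. Possible hits were drugs shifting Ins1 promoter signal more than two median absolute deviations from DMSO controls, with Pdx1 activity roughly normal.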

The compounds below were run on MIN6 (assay: % Pdx1+ Ins1+ (double-positive, mature) cells relative to DMSO control (fold of DMSO control); higher = more mature Ins1 promoter-active cells). Details: 8.5 µM; 48 h; glucose 5 mM.

Structure (SMILES)	% Pdx1+ Ins1+
CC(CN(C)C)CN1c2ccccc2Sc2ccccc21 (stereo not given) [Trimeprazine tartrate]	0.998
CC1(C)[C@@H](OC(=O)CCC(=O)O)CC[C@]2(C)[C@H]3C(=O)C=C4[C@@H]5C[C@@](C)(C(=O)O)CC[C@]5(C)CC[C@@]4(C)[C@]3(C)CC[C@@H]12 [Carbenoxolone disodium salt]	0.96
O=C(/C=C/c1ccc(O)c(O)c1)O[C@@H]1C[C@](O)(C(=O)O)C[C@@H](O)[C@H]1O [Chlorogenic acid]	0.751
C=CCOC(Cn1ccnc1)c1ccc(Cl)cc1Cl (stereo not given) [Enilconazole]	1.01
CC[C@@H](CO)NCCN[C@@H](CC)CO [Ethambutol dihydrochloride]	1.2
CC(=O)OCC(=O)[C@@]1(OC(C)=O)[C@@H](C)C[C@H]2[C@@H]3C[C@H](F)C4=CC(=O)C=C[C@]4(C)[C@@]3(F)[C@@H](O)C[C@@]21C [Diflorasone Diacetate]	0.897
CCCOc1ccc(C(=O)OCCN(CC)CC)cc1N [Proparacaine hydrochloride]	0.928
C=CCSCC1Nc2cc(Cl)c(S(N)(=O)=O)cc2S(=O)(=O)N1 (stereo not given) [Althiazide]	0.91
c1ccc(CN(CC2=NCCN2)c2ccccc2)cc1 [Antazoline hydrochloride]	1.12
CC(=O)N(CC(O)CN(C(C)=O)c1c(I)c(C(=O)NCC(O)CO)c(I)c(C(=O)NCC(O)CO)c1I)c1c(I)c(C(=O)NCC(O)CO)c(I)c(C(=O)NCC(O)CO)c1I (stereo not given) [Iodixanol]	0.976
CC(C(=O)O)c1ccc(C(=O)c2ccccc2)s1 (stereo not given) [Tiaprofenic acid]	0.867
Cc1ccsc1/C=C/C1=NCCCN1C [Morantel tartrate]	1.06
CN(C)c1ccc(O)c2c1C[C@H]1C[C@H]3[C@H](N(C)C)C(O)=C(C(N)=O)C(=O)[C@@]3(O)C(O)=C1C2=O [Minocycline hydrochloride]	0.963
CCN(CC)CCNc1ccc(CO)c2sc3ccccc3c(=O)c12 [Hycanthone]	0.746
O=C(COc1ccc(Cl)cc1)N1CCN(Cc2ccc3c(c2)OCO3)CC1 [Fipexide hydrochloride]	0.996
CNC(C)CCC=C(C)C (stereo not given) [Isometheptene mucate]	0.905
CN(Cc1cnc2nc(N)nc(N)c2n1)c1ccc(C(=O)N[C@@H](CCC(=O)O)C(=O)O)cc1 (racemic) [Amethopterin (R,S)]	0.683
CN(Cc1cnc2nc(N)nc(N)c2n1)c1ccc(C(=O)N[C@@H](CCC(=O)O)C(=O)O)cc1 [Methotrexate]	0.99
CCOC(=O)c1ccc(N)cc1 [Benzocaine]	0.865
CCN(CC)CCOC(=O)C(c1ccccc1)c1ccccc1 [Adiphenine hydrochloride]	1.17
OC(CCCN1CCCCC1)(c1ccccc1)c1ccccc1 [Diphenidol hydrochloride]	1.09
Cc1ccc(S(=O)(=O)NC(=O)NN2CCCCCC2)cc1 [Tolazamide]	0.867
C[C@]12CC[C@@H]3c4ccc(OS(=O)(=O)O)cc4CC[C@H]3[C@@H]1CCC2=O [Estropipate]	0.876
CCCCNc1c(C(=O)OCC)c(C)nc2c1cnn2CC [Tracazolate hydrochloride]	0.869

At a glance, part of the list above:
Structure (SMILES)	% Pdx1+ Ins1+
c1ccc(CN(CC2=NCCN2)c2ccccc2)cc1 [Antazoline hydrochloride]	1.12
CC(=O)N(CC(O)CN(C(C)=O)c1c(I)c(C(=O)NCC(O)CO)c(I)c(C(=O)NCC(O)CO)c1I)c1c(I)c(C(=O)NCC(O)CO)c(I)c(C(=O)NCC(O)CO)c1I (stereo not given) [Iodixanol]	0.976
CC(C(=O)O)c1ccc(C(=O)c2ccccc2)s1 (stereo not given) [Tiaprofenic acid]	0.867

Following part.

Structure (SMILES)	% Pdx1+ Ins1+
CCCCC1(COC(=O)CCC(=O)O)C(=O)N(c2ccccc2)N(c2ccccc2)C1=O [Suxibuzone]	0.803
COc1cc(NC(C)CCCN)c2ncccc2c1 (stereo not given) [Primaquine diphosphate]	0.824
COc1cc(-c2ccc(=O)[nH]n2)ccc1OC(F)F [Zardaverine]	0.862
O=c1cc(-c2ccc(O)cc2)oc2c([C@@H]3O[C@H](CO)[C@@H](O)[C@H](O)[C@H]3O)c(O)cc(O)c12 [Vitexin]	0.847
Cc1cc(-c2ccccc2)nnc1NCCN1CCOCC1 [Minaprine dihydrochloride]	1.2
NC(N)=Nc1nc(CSCC/C(N)=N/S(N)(=O)=O)cs1 [Famotidine]	1.15
CC1=C(/C=C/C(C)=C/C=C/C(C)=C\C(=O)O)C(C)(C)CCC1 [Isotretinoin]	1.14
CC/C(=C(/CC)c1ccc(O)cc1)c1ccc(O)cc1 [Diethylstilbestrol]	0.594
CSc1ccc2c(c1)N(CCC1CCCCN1C)c1ccccc1S2 (stereo not given) [Thioridazine hydrochloride]	1.09
CN(C)[C@@H]1C(O)=C(C(N)=O)C(=O)[C@@]2(O)C(O)=C3C(=O)c4c(O)cccc4[C@@](C)(O)[C@H]3[C@H](O)[C@@H]12 [Oxytetracycline dihydrate]	0.976
COc1ccc(CC2c3cc(OC)c(OC)cc3CC[N+]2(C)CCC(=O)OCCCCCOC(=O)CC[N+]2(C)CCc3cc(OC)c(OC)cc3C2Cc2ccc(OC)c(OC)c2)cc1OC (stereo not given) [Atracurium besylate]	0.983
CC(=O)[C@H]1CC[C@H]2[C@@H]3CC=C4C[C@@H](O)CC[C@]4(C)[C@H]3CC[C@]12C [Pregnenolone]	0.97
CCCCN1CCCCC1C(=O)Nc1c(C)cccc1C (stereo not given) [Bupivacaine hydrochloride]	1.11
CCOC(=O)NNc1nncc2ccccc12 [Todralazine hydrochloride]	1.14
CC(C)(C)c1ccc(C(O)CCCN2CCC(C(O)(c3ccccc3)c3ccccc3)CC2)cc1 (stereo not given) [Terfenadine]	0.881
CC(COc1ccccc1)NC(C)C(O)c1ccc(O)cc1 (stereo not given) [Isoxsuprine hydrochloride]	1.01
CC[C@@H](C(=O)[C@@H](C)[C@@H](O)[C@H](C)CCc1ccc(C)c(O)c1C(=O)O)[C@H]1O[C@](CC)([C@H]2CC[C@](O)(CC)[C@H](C)O2)C[C@@H]1C [Lasalocid sodium salt]	0.544
CO[C@H]1C[C@H](O[C@H]2[C@H](C)[C@@H](O[C@@H]3O[C@H](C)C[C@H](N(C)C)[C@H]3O)[C@@H](C)C[C@@]3(CO3)C(=O)[C@H](C)[C@@H](O)[C@@H](C)[C@@H](C)OC(=O)[C@@H]2C)O[C@@H](C)[C@@H]1O [Oleandomycin phosphate]	1.1
Nc1ccc(S(=O)(=O)Nc2ccccn2)cc1 [Sulfapyridine]	0.84
Cc1n[nH]c(=O)[nH]c1=O [Azathymine, 6]	0.888
CN(C)CCCN1c2ccccc2Sc2ccc(Cl)cc21 [Chlorpromazine hydrochloride]	1.11
COc1ccc(C(=O)c2ccccc2O)c(O)c1 [Dioxybenzone]	0.85
CC(C)(C)NC[C@H](O)COc1ccccc1C1CCCC1 [Penbutolol sulfate]	0.821
O=c1c(O)c(-c2ccc(O)c(O)c2)oc2cc(O)cc(O)c12 [Quercetine dihydrate]	0.929

Structure (SMILES)	% Pdx1+ Ins1+
NS(=O)(=O)c1cc2c(cc1Cl)NC(CC1CCCC1)NS2(=O)=O (stereo not given) [Cyclopenthiazide]	0.902
CC(C)(C)NCC(O)c1cc(O)cc(O)c1 (stereo not given) [Terbutaline hemisulfate]	0.981
CCOC(=O)[N-]c1c[n+](N2CCOCC2)no1 [Molsidomine]	0.876
CC[N+](CC)(CC)CCOc1cccc(OCC[N+](CC)(CC)CC)c1OCC[N+](CC)(CC)CC [Gallamine triethiodide]	0.989
C#C[C@]1(O)CC[C@H]2[C@@H]3CCC4=C(CCC(=O)C4)[C@H]3CC[C@@]21C [Norethynodrel]	1.19
CCc1oc2ccccc2c1C(=O)c1cc(Br)c(O)c(Br)c1 [Benzbromarone]	0.915
CC/C(=C(\c1ccccc1)c1ccc(OCCN(C)C)cc1)c1ccccc1 [Tamoxifen citrate]	1.1
CN[C@@H]1[C@H](O[C@H]2[C@H](O[C@H]3[C@H](O)[C@@H](O)[C@H](NC(=N)N)[C@@H](O)[C@@H]3NC(=N)N)O[C@@H](C)[C@]2(O)CO)O[C@@H](CO)[C@H](O)[C@H]1O [Dihydrostreptomycin sulfate]	1.04
NCc1ccc(S(N)(=O)=O)cc1 [Mafenide hydrochloride]	1.19
CCCCC[C@H](O)/C=C/[C@H]1[C@H](O)CC(=O)[C@@H]1CCCCCCC(=O)O [Alprostadil]	0.928
CC(C(=O)O)c1ccc(C(=O)c2cccs2)cc1 (stereo not given) [Suprofen]	0.813
CCOc1ccc(NC(C)=O)cc1 [Phenacetin]	0.828
CN1CCC[C@@H]1CCO[C@](C)(c1ccccc1)c1ccc(Cl)cc1 [Clemastine fumarate]	1.03
COC(=O)[C@H]1[C@H]2C[C@@H]3c4[nH]c5cc(OC)ccc5c4CCN3C[C@H]2C[C@@H](OC(=O)/C=C/c2cc(OC)c(OC)c(OC)c2)[C@@H]1OC [Rescinnamin]	0.742
COC(=O)C1=C(C)NC(C)=C(C(=O)OCCN(C)Cc2ccccc2)C1c1cccc([N+](=O)[O-])c1 (stereo not given) [Nicardipine hydrochloride]	0.671
CN(C)CCOC(c1ccc(Cl)cc1)c1ccccn1 (stereo not given) [Carbinoxamine maleate salt]	0.997
NC(=O)NC1NC(=O)NC1=O (stereo not given) [Allantoin]	1.22
CC(C)NCC(O)c1ccc(O)c(O)c1 (single isomer, unassigned; (-)) [(-)-Isoproterenol hydrochloride]	0.943
O=C1C(O)=C([C@H]2CC[C@H](c3ccc(Cl)cc3)CC2)C(=O)c2ccccc21 [Atovaquone]	0.987
Cc1ccccc1C(OCCN(C)C)c1ccccc1 (stereo not given) [Orphenadrine hydrochloride]	0.966
CN1CCC(=C2c3ccccc3CCc3sccc32)CC1 [Pizotifen malate]	0.813
CN1CCOC(c2ccccc2)c2ccccc2C1 (stereo not given) [Nefopam hydrochloride]	1.05
